Measured values reported in patent publication US8507445B2, “Compositions and methods of use of targeting peptides for diagnosis and therapy of human cancer” (Board of Regents, The University of Texas System, priority 2002, dated 2013).
Not every detail of the peptide structures is certain; ends, links or a residue may be inferred. Bridge positions count the residues as written; N and C are the ends. Square brackets hold non-standard residues; d marks the D form. Peptide text beside a SMILES is read from it.

Tests used:
[1] = Anti-obesity therapy, high-fat cafeteria diet-induced obesity; format: in vivo, C57BL/6 mice; conditions: daily subcutaneous injection, two weeks
adipose tissue = assay: Histopathological analysis of tissues from treated mice; conditions: mouse, in vivo
Protocol: Staining of formalin-fixed, paraffin-embedded mouse tissue sections was performed (Pasqualini & Rouslahti, 1996; Pasqualini et al., 2000). For phage-peptide immunolocalization, 10^10 TU of […] (SEQ ID NO:81)-phage or a control insertless phage was injected intravenously. Phage immunohistochemistry was performed using a rabbit anti-fd phage antibody (Sigma Chemicals, St. Louis, Mo.) used at 1:1,000 dilution and a secondary horseradish peroxidase (HRP)-conjugated antibody. Apoptosis was detected using standard TUNEL immunohistochemistry and an HRP-conjugated antibody. For in vivo peptide homing validation, stocks of 5-carboxyfluorescein (FITC)-conjugated […] (SEQ ID NO:81) or CARAC (SEQ ID NO:71) were chemically synthesized, cyclized using the terminal cysteines and HPLC-purified to >90% purity by Anaspec (San Jose, Calif.). Lyophilized peptides were dissolved in DMSO to a concentration of 20 mM. Ten μl of 1 mM peptide-FITC solution in PBS was injected 5 min prior to tissue extraction. For blood vessel localization, 10 μl of 2 mg/ml of rhodamine-conjugated lectin-I (RL-1102, Vector Laboratories, Burlingame, Calif.) was co-injected. All immunohistochemistry and FITC immunofluorescence images were captured using an Olympus IX70 microscope and digital camera setup (Melville, N.Y.).

For `CC(C)C[C@@H](NC(=O)[C@@H](CCCCN)NC(=O)CNC(=O)CNC(=O)[C@@H]1CSSC[C@H](N)C(=O)N[C@@H](CCCCN)C(=O)NCC(=O)NCC(=O)N[C@@H](CCCNC(=N)N)C(=O)N[C@@H](C)C(=O)N[C@@H](CCCCN)C(=O)N[C@@H](CC(=O)O)C(=O)N1)C(=O)N[C@H](C)C(=O)N[C@H](CCCCN)C(=O)N[C@H](CC(C)C)C(=O)N[C@H](C)C(=O)N[C@H](CCCCN)C(=O)N[C@H](CCCCN)C(=O)N[C@H](CC(C)C)C(=O)N[C@H](C)C(=O)N[C@H](CCCCN)C(=O)N[C@H](CC(C)C)C(=O)N[C@H](C)C(=O)N[C@H](CCCCN)C(=O)O` (H-CKGGRAKDCGG[dK][dL][dA][dK][dL][dA][dK][dK][dL][dA][dK][dL][dA][dK]-OH; disulfide 1-9), the “decrease in body mass” value [1] was “up to 20%” and the “vascular apoptosis and fat necrosis in adipose tissue” value (adipose tissue) was “vascular apoptosis”.
